From US4769374A, “Tetrahydroisoquinoline ethyl esters of 1,4-dihydropyridines and antihypertensive compositions” (Poli Industria Chimica S.p.A., priority 1984, dated 1988)

Test: in vivo
Settings: mouse, mice of both sexes, oral, day 14 of observation
Method: The acute toxicity was determined on mice of both sexes upon oral administration of the compounds to be tested as a suspension in carboxymethylcellulose containing 0.5% of physiologic solution, and it was expressed as an LD50 value at day 14 of observation.

## COC(=O)C1=C(C)NC(C)=C(C(=O)OC)C1c1ccccc1[N+](=O)[O-] [Nifedipine, reference compound]
  LD50 at 336 h: 750 mg/kg
